Data: patent publication US7585854B2, “Method for treating endometriosis” (Tochigi Institute of Clinical Pathology, priority 2000, dated 2009)
At least one compound was matched to its structure with a doubt left.

System: endometriosis model rats
Assay: Therapeutic effect in endometriosis model rats (uterine tissue autotransplanted to peritoneum; lesion observed by light and electron microscopy)
Type: in vivo, Sprague-Dawley rats (female)
Conditions: oral
Procedure: Endometriosis model rats were prepared by the method described in Michael W. Vernon et al., FERTILITY AND STERILITY, Vol. 44, No. 5, November 1985. That is, endometriosis model rats were prepared as follows: Sprague-Dawley rats (female) of 8 weeks old were acclimatized for 2 weeks under 12 hours light-dark condition. From each rat, right uterine horn was excised under general anesthesia with sevoflurane and ketamine hydrochloride, and a tissue piece sizing 5 mm×5 mm was prepared therefrom. The tissue piece was subjected to autotransplantation such that the endometrium surface is attached to peritoneum.
Seven days after the preparation of the model rats, at which the model lesion reached its peak, the peritoneum tissue including the graft up to the abdominal muscle was excised to obtain a lesion sample. From the thus obtained samples, light microscope specimens (hematoxylin-eosin staining, toluidine blue staining) and electron microscope specimens (uranium-lead double staining) were prepared, and observations with an light microscope (the magnifications were 4× for hematoxylineosin-stained specimens, and 20× for toluidine blue-stained specimens, respectively), and with an electron microscope were carried out as in Reference Example 1.
Endometriosis model rats were prepared by the same method as in Comparative Example 1. From 24 hours after the preparation of the endometriosis model rats, an antiallergic agent (trademark “Alesion Tablet” produced by Boehringer Ingelheim) containing epinastine hydrochloride as the active component was orally administered to the rats for 6 days at a dose of 0.04 mg/kg bodyweight per day in terms of epinastine hydrochloride. Seven days after the preparation of the model rats, at which the model lesion reached its peak, the peritoneum tissues including the graft up to the abdominal muscle were excised to obtain lesion samples.
The same procedures as in Example 1 were repeated except that an antiallergic agent containing ketotifen fumarate as the active component (trademark “Zaditen” produced by Ciba-Geigy Japan Limited) was administered in place of the antiallergic agent containing epinastine hydrochloride as an active component.
The same procedures as in Example 1 were repeated except that an antiallergic agent containing pranlukast hydrate as the active component (trademark “ONON CAPSULE” produced by ONO PHARMACEUTICAL CO.,LTD.) was administered in place of the antiallergic agent containing epinastine hydrochloride as an active component, and that the administration dose per day was 9 mg/kg in terms of pranlukast hydrate.

[1] = 9 mg/kg per day for 6 days, day 7, light and electron microscope

O=C(Nc1cccc2c(=O)cc(-c3nnn[nH]3)oc12)c1ccc(OCCCCc2ccccc2)cc1 [pranlukast, pranlukast hydrate]
invasion of mast cells compared with Comparative Example 1 (non-treated model rats) (9 mg/kg per day for 6 days from 24 hours after model preparation, lesion sampled at day 7): prominently reduced
therapy of endometriosis (overall conclusion) (9 mg/kg per day for 6 days, day 7): effective
effect for inhibiting invasion of mast cells relative to Examples 1 and 2 (epinastine, ketotifen) (9 mg/kg per day for 6 days, day 7, comparison with 0.04 mg/kg groups): more prominent than in Examples 1 and 2
apoptosis of fibroblast cells [1]: observed
proliferation of the interstitial cells [1]: prominent inhibition
